Data reported in PubChem BioAssay AID2685 (National Center for Advancing Translational Sciences (NCATS), 2010).
Several values for one entry are separate records, joined by “and”; a condition that tells them apart may be missing. Identical values can stand only once. In all, about 320,000 compounds went through this assay and about 2,100 (0.66%) were called active. The shares of active, inactive and inconclusive entries below differ from those in the screen. Calls come from the whole dose curve; as a rule, active = well fitted inhibition curve with a large enough effect in the signal ratio, with a control signal flat (not every such curve was filed as active); inconclusive = small, poorly fitted or top-dose-only effect, or effect the other way, or a change in a side signal; inactive = flat fitted curve, though single readings scatter; the % refers to the signal ratio. A potency beside an inconclusive call is a rough fit, not a confirmed value.

Test: qHTS Assay for Lipid Storage Modulators in Drosophila S3 Cells
Settings: BODIPY lipid droplet fluorescence, 18-24 h, cells fed with added oleic acid; lipid storage change, negative = inhibition: at 46.1 µM (top of the series) unless noted
Procedure, shortened: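 Drosophila S3 cells loaded with oleic acid (400 uM, as added) and compounds at several concentrations; lipid droplets imaged by 488-nm laser-scanning cytometry, 500–530 nm intensity and object ratio to cell channel. Percent activity normalized to 20 uM Triacsin C.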
% is set by controls: 0 for no effect and ±100 for the full control effect; potency is the fitted concentration of half-maximal effect.

Row | Compound | lipid storage change, negative = inhibition | Potency
1 | Cc1ccc(S(=O)(=O)N2CCC(Oc3cccc(C(F)(F)F)c3)CC2)cc1 | inconclusive: 14.9% | –
2 | COc1ccccc1-c1cnn2c(NCc3ccccc3)cc(C)nc12 | inconclusive: 35.9% | –
3 | CCOc1ccc(C(=O)N/N=C/c2cc(Cl)ccc2[N+](=O)[O-])cc1 | inconclusive: 24.5% | –
4 | Cc1cccc(C)c1NC(=O)CNC(=O)C1CC(=O)N(Cc2ccccc2)C1 (stereo not given) | inconclusive: 19% | –
5 | O=C(Oc1ccc2c(=O)c(Cl)coc2c1)c1ccncc1 | inconclusive: 3.6% | –
6 | O=C(c1ccccc1C(=O)N(c1ccccc1)c1ccccc1)N1CCCCC1 | inconclusive: 47.3% | –
7 | COc1ccc(OC)c2sc(NC(=O)c3ccc(S(=O)(=O)N4CCOCC4)cc3)nc12 | inactive | –
8 | O=C(NCc1ccccc1)c1ccc(CSc2ccccc2)o1 | inconclusive: 12.5% | –
9 | COc1ccc(Nc2nc(-c3ccc4c(c3)NC(=O)CO4)cs2)cc1 | inconclusive: 69.2% | –
10 | O=C(COC(=O)c1ccc(O)cc1O)c1ccc2c(c1)OCO2 | inconclusive: 143% | –
11 | O=C(NC(=S)Nc1ccc(Br)cn1)c1cccs1 | inconclusive: 18.5% | –
12 | O=C(COC(=O)c1ccco1)NCc1ccco1 | inconclusive: 36.3% | –
13 | COc1ccc(CCNC(=O)CCC(=O)N2CC(C)Oc3ccc(Cl)cc32)cc1OC (stereo not given) | inconclusive: -50.1% | –
14 | CC(=O)c1cccc(NC(=S)N2CCN(S(C)(=O)=O)CC2)c1 | inconclusive: 58.2% | –
15 | COc1ccc2cc(/C=N/NC(=O)CN(c3ccccc3)S(=O)(=O)c3ccccc3)c(Cl)nc2c1 | – | inconclusive: 1840 nM [activator, full curve]
16 | O=C(CSc1nc2ccccc2c(=O)n1-c1ccc(F)c(Cl)c1)Nc1cccc(S(=O)(=O)N2CCOCC2)c1 | inconclusive: 24.1% | –
17 | Cc1ccc(C(=O)NC2CCN(C(=O)Nc3ccc(F)cc3)CC2)cc1 | – | inconclusive: 164 nM [activator, full curve]
18 | CN(C)CCNC(=O)c1cccc(S(=O)(=O)Nc2ccc(F)cc2)c1 | – | inconclusive: 130 nM [falling, full curve, poor fit]
19 | COc1ccc(CCN2CN(S(=O)(=O)c3ccc(OC)cc3)c3nc4ccccc4nc32)cc1 | – | inconclusive: 1160 nM [activator, full curve]
20 | CN1c2ccccc2N(C)C1(C)c1cccc2ccccc12 | inconclusive: 13.4% | –
21 | Fc1ccc(-n2c(-c3ccco3)nc3nc4ccccc4nc32)cc1 | – | inconclusive: 651 nM [activator, full curve, poor fit]
22 | C=CCNC(=O)CCNS(=O)(=O)c1ccc(Br)cc1 | inconclusive: 7.14% | –
23 | CCCCCN1C2=NCCN2c2ccccc21 | inconclusive: 7.34% | –
24 | O=C(NC1=NCCS1)c1ccccc1 | inconclusive: -48.4% | –
25 | COc1ccc(NC(=O)Nc2ccc([N+](=O)[O-])cc2)cn1 | inconclusive: -16.7% | –

Row | Compound | lipid storage change, negative = inhibition | Potency
26 | O=C(CSCc1cnn(-c2ccccc2)c1-n1cccc1)NCc1ccc2c(c1)OCO2 | inconclusive: -1.22% | –
27 | COc1ccc(F)cc1S(=O)(=O)NCCN1CCOCC1 | – | inconclusive: 116 nM [falling, full curve, poor fit]
28 | COc1ccc(S(=O)(=O)N(CC(=O)N2CCN(c3ccccc3OC)CC2)c2ccccc2)cc1 | inconclusive: 40.1% | –
29 | Cc1cccc(NC(=O)CCc2nc3sc4c(c3c(=O)[nH]2)CCCC4)c1 | inconclusive: 16.7% | –
30 | O=C(CCn1cccc1)Nc1cccc(F)c1 | – | inconclusive: 820 nM [falling, full curve, poor fit]
31 | Cc1ccc2c(C)c(C(=O)N(Cc3ccccc3)C3CCS(=O)(=O)C3)oc2c1 (stereo not given) | – | inconclusive: 16400 nM [falling, single point]
32 | CCOC(=O)c1oc2ccccc2c1CSc1nnc(-c2ccco2)o1 | inconclusive: -49.3% | –
33 | O=C1c2cccc3c([N+](=O)[O-])ccc(c23)C(=O)N1c1ccccn1 | inconclusive: -97.2% | –
34 | Cn1c(NCc2cccs2)nc2ccccc21 | – | inconclusive: 517 nM [falling, full curve]
35 | O=C(CN1C(=O)C2C3C=CC(C3)C2C1=O)NCc1ccccc1 (stereo not given) | inconclusive: -24.8% | –
36 | Cc1ccccc1C(=O)Nn1cnc2ccccc2c1=O | inconclusive: -18.2% | –
37 | CCOC(=O)c1c(-c2ccccc2)oc2ccc(O)c(CN(C)C)c12 | inconclusive: 42.3% | –
38 | COCc1nnc(NC(=O)CSc2ccccc2)s1 | inactive | –
39 | O=c1[nH]c(/C=C/c2ccccn2)nc2ccccc12 | – | inconclusive: 29100 nM [activator, single point]
40 | CSc1ccc(C2c3[nH]c4ccccc4c3CCN2C(=O)c2cc(C)n(C)n2)cc1 (stereo not given) | inconclusive: -22.4% | –
41 | CCN1C/C(=C/c2ccc(OC)c(O)c2)C(=O)/C(=C/c2ccc(OC)c(O)c2)C1 | – | inconclusive: 461 nM [activator, full curve, poor fit]
42 | O=C(CSc1ncnc2nc[nH]c12)Nc1ccc(Br)cc1Cl | inconclusive: 33.9% | –
43 | CCN1CCN(Cc2ccc(NC(=O)c3ccc(C)c(NC(=O)C(=O)c4c[nH]c5ccccc45)c3)cc2C(F)(F)F)CC1 | inconclusive: -18.5% and inconclusive: -73.4% | –
44 | Cc1ccc(C(=O)CSc2nnc(-c3cccs3)n2C)o1 | inconclusive: -6.7% | –
45 | CCOC(=O)CCSc1nc(C)cc(C(F)(F)F)c1C#N | – | inconclusive: 23100 nM [falling, single point]
46 | CCN(c1ccccc1)S(=O)(=O)c1ccc(OC)c(NC(=O)CCc2nc3ccccc3c(=O)[nH]2)c1 | inconclusive: 30.3% | –
47 | CC(=O)Nc1ccc(C(=O)N/C(=C/c2ccccc2)C(=O)N2CCCCC2)cc1 | inconclusive: -117% | –
48 | CCc1cc2c(=O)n3c(nc2s1)-c1[nH]c2ccc(OC)cc2c1CC3 | – | inconclusive: 20600 nM [activator, single point]
49 | COc1ccccc1OCCN1C(=O)S/C(=C\c2ccco2)C1=O | inconclusive: 33.1% | –
50 | CCOc1ccc(N(C(=O)c2snc(C(N)=O)c2N)C(C(=O)NCC2CCCO2)c2ccco2)cc1 (stereo not given) | – | inconclusive: 32600 nM [activator, partial curve, poor fit]
